Data source: PubChem BioAssay AID743121 (NCATS, 2013)

Test: 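Genes whose silencing strengthens cell killing by camptothecin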 (primary screen)
System: MDA-MB-231 cells, a human breast cancer line
Reagents: single siRNA against human genes, 20 nM siRNA (0.8 pmol per well)
Time to read-out: 120 h (drug added 48 h after transfection, read 72 h later)
Conditions: camptothecin 20 nM (about EC30) for 72 h; vehicle 0.1% DMSO in parallel plates
Read-out: 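Cell viability by ATP luminescence (CellTiter-Glo) as % of non-targeting siRNA wells, and the log2 ratio of viability without drug over viability with camptothecin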
Reading the numbers: log2 vehicle/camptothecin viability: higher = stronger sensitisation to camptothecin
Call rule: 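Each gene scored by redundant siRNA activity (RSA) over its individual siRNA ratios; a gene is called active at p < 0.001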
The deposit covers about 26,000 reagents; below is an unselected part. In the full data, 167 (0.63%) were called active. 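Calls are per gene from RSA p-values that are not deposited; an individual active-marked siRNA can sensitise only weakly.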 Further read-outs or replicates are left out here.

log2 vehicle/camptothecin viability, by gene and reagent
RPS6KC1: SID164461026 0.0017 inactive; SID164461029 -0.11 inactive; SID164461030 0.231 inactive; SID164461032 0.0471 inactive
TPM1: SID164392454 0.769 inactive; SID164392459 0.291 inactive; SID164392463 -0.426 inactive
DAB2: SID164360916 -0.0625 inactive; SID164360919 0.0207 inactive; SID164360920 -0.107 inactive
CYP4F2: SID164398212 -0.531 inactive; SID164398213 -0.114 inactive
IL31RA: SID164570077 0.034 inactive; SID164570079 -0.187 inactive; SID164570080 -0.605 inactive; SID164570083 -0.018 inactive
MPP3: SID164376038 -0.181 inactive; SID164376041 -0.286 inactive; SID164376043 -0.141 inactive; SID164376044 -0.0143 inactive
PLA2G2C: SID164679879 -0.472 inactive; SID164679881 -0.0411 inactive; SID164679882 0.132 inactive
GNE: SID164408132 -0.479 inactive; SID164408134 0.0283 inactive; SID164408135 -0.613 inactive; SID164408137 -0.115 inactive
TMEM116: SID164549625 -0.247 inactive; SID164549627 0.0651 inactive; SID164549628 0.231 inactive; SID164549630 -0.233 inactive
MMD: SID164448607 -0.576 inactive; SID164448611 -0.363 inactive; SID164448613 -0.566 inactive; SID164448615 -0.0787 inactive
NLK: SID164475095 -0.0915 inactive; SID164475099 -0.262 inactive; SID164475101 -0.0242 inactive; SID164475102 0.136 inactive
ADD1: SID164352366 -0.15 inactive; SID164352367 0.913 inactive; SID164352368 0.147 inactive; SID164352369 -0.403 inactive
MAP4K2: SID164384384 0.0578 inactive; SID164384387 -0.0256 inactive; SID164384389 -0.608 inactive; SID164384390 -0.185 inactive
SQLE: SID164389662 -0.439 inactive; SID164389664 -0.34 inactive; SID164389666 -0.385 inactive; SID164389667 0.0292 inactive

As entered above:
For “log2 vehicle/camptothecin viability”, TPM1 [SID164392459] shows 0.291
For “Call”, CYP4F2 [SID164398212] is entered as inactive
Under “Call”, GNE [SID164408132] has inactive
MMD [SID164448611], Call → inactive
Entry of SQLE [SID164389664] in “log2 vehicle/camptothecin viability”: -0.34
Entry for PLA2G2C [SID164679879] under “log2 vehicle/camptothecin viability”: -0.472

The results go on.
log2 vehicle/camptothecin viability, by gene and reagent
STK4: SID164390184 0.117 inactive; SID164390185 0.19 inactive; SID164390186 0.118 inactive; SID164390191 -0.307 inactive
CHRNB4: SID164358469 -0.189 inactive; SID164358470 0.0124 inactive; SID164358471 0.18 inactive; SID164358474 0.142 inactive
CAV3: SID164356711 -0.206 inactive; SID164356713 -0.295 inactive; SID164356714 0.281 inactive
CIP2A: SID164495536 0.0335 inactive; SID164495540 0.208 inactive; SID164495541 -0.0984 inactive; SID164495543 -0.0729 inactive
GNAS: SID164366928 -0.0229 inactive; SID164366930 0.0705 inactive; SID164366932 0.492 inactive; SID164366933 -0.29 inactive
KCNH8: SID164569545 -0.277 inactive; SID164569548 -0.279 inactive; SID164569549 -0.257 inactive; SID164569550 -0.15 inactive
HTR2B: SID164370425 -0.102 inactive; SID164370427 0.744 inactive; SID164370428 0.409 inactive
CCNA2: SID164356888 0.0596 inactive; SID164356891 -0.161 inactive; SID164356894 -0.338 inactive; SID164356895 0.031 inactive
RNF185: SID164551043 -0.0658 inactive; SID164551046 -0.173 inactive; SID164551048 -0.0115 inactive
GHRL: SID164475256 0.157 inactive; SID164475259 -0.411 inactive; SID164475261 -0.556 inactive; SID164475262 -0.618 inactive
